Reference: article PMC11018626, “Sm-like protein Rof inhibits transcription termination factor ρ by binding site obstruction and conformational insulation” (Nature Communications, 2023)
These are yes or no findings as the source states them, for the method shown. For part of these data: Sequences can lack the tags named with a protein.

Amino acid sequences for entries named in this document (tags omitted). A change or cut given only in a name is not applied to a line headed by its entry.
UniProt P0AG30: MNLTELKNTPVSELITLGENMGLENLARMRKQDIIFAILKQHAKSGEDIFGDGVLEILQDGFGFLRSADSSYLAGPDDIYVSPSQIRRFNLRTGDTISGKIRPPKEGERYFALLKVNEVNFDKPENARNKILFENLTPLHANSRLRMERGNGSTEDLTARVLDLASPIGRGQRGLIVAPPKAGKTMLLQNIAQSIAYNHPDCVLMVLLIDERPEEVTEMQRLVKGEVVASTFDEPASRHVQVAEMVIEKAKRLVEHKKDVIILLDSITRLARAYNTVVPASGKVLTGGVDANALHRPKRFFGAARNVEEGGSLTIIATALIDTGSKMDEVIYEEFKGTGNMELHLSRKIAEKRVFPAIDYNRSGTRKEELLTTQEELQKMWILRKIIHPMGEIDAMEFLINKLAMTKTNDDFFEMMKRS

How the values were obtained:
[1] = target: Transcription termination factor ρ R88E (E. coli) (E. coli) (UniProt P0AG30); assay: SEC; analytical SEC, Superdex S200 PC 3.2 column, 5 µM ρ and 90 µM Rof/variants mixed in reaction buffer (20 mM Tris-HCl pH 8.0, 120 mM KOAc, 5 mM Mg(OAc)2, 2 mM DTT), 32 °C 10 min, run at 4 °C; fractions analysed by SDS-PAGE; both purified
[2] = target: Transcription termination factor ρ, wild type (E. coli) (E. coli) (UniProt P0AG30); assay: as above

B1: Rof, wild type, tag-less (E. coli) (natural protein)
chain: MNDTYQPINCDDYDNLELACQHHLMLTLELKDGEKLQAKASDLVSRKNVEYLVVEAAGETRELRLDKITSFSHPEIGTVVVSES
notes: Rof (YaeO), E. coli; codon-optimised rof gene; the C-terminal residue is printed as S84 (84-residue form); the residue numbers used (I8 to S84) fit the 84-residue form; also called Rof^wt; ecRof; source: E. coli RIL (BL21), purified (Ni2+-NTA, TEV protease, Superdex 75)
binding [1]: no binding (tested: 5 µM ρ and 90 µM Rof)

B2: Rof D14A (E. coli) (natural protein)
chain: MNDTYQPINCDDYANLELACQHHLMLTLELKDGEKLQAKASDLVSRKNVEYLVVEAAGETRELRLDKITSFSHPEIGTVVVSES
binding [2]: no binding (tested: 5 µM ρ and 90 µM Rof variant)

B3: Rof Y13A (E. coli) (natural protein)
chain: MNDTYQPINCDDADNLELACQHHLMLTLELKDGEKLQAKASDLVSRKNVEYLVVEAAGETRELRLDKITSFSHPEIGTVVVSES
binding [2]: no binding (tested: 5 µM ρ and 90 µM Rof variant)
